Measurements taken from paper PMC12785802.
Where a chain is given by its changes, count along the chain named. The exact form of at least one protein or probe is not confirmed. At least one result comes from cells or an extract, where the contact may be indirect. For part of these data: A negative result means that nothing was seen under these conditions. For part of these data: Protein sequences can lack the tags named with them. For part of these data: Weaker means in comparison with the reference protein, sequence or condition of that experiment. For part of these data: At least one verdict rests on a figure or table, not on a statement of the authors.

Columns and labels:
[1] = target: T1, POU1F1 A158P (Homo sapiens) (UniProt P28069); test: EMSA; details: 20 mM HEPES-NaOH pH 7.9, 50 mM KCl, 0.1 mM EDTA, 10% glycerol, 0.5 mM DTT, 2 ug poly(dI-dC) in 20 uL, 20 min at room temperature, 5% PAGE at 4 C, protein in a lysate after overexpression, label: 32P (T4 PNK)
T1 sequence (looked up, limits assumed): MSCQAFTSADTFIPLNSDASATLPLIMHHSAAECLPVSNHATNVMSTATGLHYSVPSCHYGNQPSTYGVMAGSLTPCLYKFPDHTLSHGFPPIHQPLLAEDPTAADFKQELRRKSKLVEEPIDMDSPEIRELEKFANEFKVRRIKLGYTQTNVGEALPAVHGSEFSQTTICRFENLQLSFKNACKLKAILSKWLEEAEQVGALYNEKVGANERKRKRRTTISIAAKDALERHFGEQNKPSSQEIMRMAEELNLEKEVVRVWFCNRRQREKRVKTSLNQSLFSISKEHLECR

[2] = target: T2, POU1F1 E230K (Homo sapiens) (UniProt P28069); test: EMSA; details: 20 mM HEPES-NaOH pH 7.9, 50 mM KCl, 0.1 mM EDTA, 10% glycerol, 0.5 mM DTT, 2 ug poly(dI-dC) in 20 uL, 20 min at room temperature, 5% PAGE at 4 C, protein in a lysate after overexpression, label: 32P (T4 PNK)
T2 sequence (looked up, limits assumed): T1 sequence (looked up, limits assumed) with P158A, E230K

[3] = target: T3, POU1F1 K216E (Homo sapiens) (UniProt P28069); test: EMSA; details: 20 mM HEPES-NaOH pH 7.9, 50 mM KCl, 0.1 mM EDTA, 10% glycerol, 0.5 mM DTT, 2 ug poly(dI-dC) in 20 uL, 20 min at room temperature, 5% PAGE at 4 C, protein in a lysate after overexpression, label: 32P (T4 PNK)
T3 sequence (looked up, limits assumed): T1 sequence (looked up, limits assumed) with P158A, K216E

[4] = target: T4, POU1F1 P76L (Homo sapiens) (UniProt P28069); test: EMSA; details: 20 mM HEPES-NaOH pH 7.9, 50 mM KCl, 0.1 mM EDTA, 10% glycerol, 0.5 mM DTT, 2 ug poly(dI-dC) in 20 uL, 20 min at room temperature, 5% PAGE at 4 C, protein in a lysate after overexpression, label: 32P (T4 PNK)
T4 sequence (looked up, limits assumed): T1 sequence (looked up, limits assumed) with P76L, P158A

[5] = target: T5, POU1F1 R172Q (Homo sapiens) (UniProt P28069); test: EMSA; details: text: reduced, 20 mM HEPES-NaOH pH 7.9, 50 mM KCl, 0.1 mM EDTA, 10% glycerol, 0.5 mM DTT, 2 ug poly(dI-dC) in 20 uL, 20 min at room temperature, 5% PAGE at 4 C, protein in a lysate after overexpression, label: 32P (T4 PNK)
T5 sequence (looked up, limits assumed): T1 sequence (looked up, limits assumed) with P158A, R172Q

[6] = target: T6, POU1F1 R271W (Homo sapiens) (UniProt P28069); test: EMSA; details: 20 mM HEPES-NaOH pH 7.9, 50 mM KCl, 0.1 mM EDTA, 10% glycerol, 0.5 mM DTT, 2 ug poly(dI-dC) in 20 uL, 20 min at room temperature, 5% PAGE at 4 C, protein in a lysate after overexpression, label: 32P (T4 PNK)
T6 sequence (looked up, limits assumed): T1 sequence (looked up, limits assumed) with P158A, R271W

[7] = target: T7, POU1F1 wild type (PIT1) (Homo sapiens) (UniProt P28069); test: EMSA with supershift; details: 20 mM HEPES-NaOH pH 7.9, 50 mM KCl, 0.1 mM EDTA, 10% glycerol, 0.5 mM DTT, 2 ug poly(dI-dC) in 20 uL, 20 min at room temperature, 5% PAGE at 4 C, protein in a lysate after overexpression, label: 32P (T4 PNK)
T7 sequence (looked up, limits assumed): T1 sequence (looked up, limits assumed) with P158A

GATA2 (Mus musculus) = target: T8, GATA2 (Mus musculus) (UniProt O09100); test: EMSA; details: GATA2 monomer and dimer bands; 20 mM HEPES-NaOH pH 7.9, 50 mM KCl, 0.1 mM EDTA, 10% glycerol, 0.5 mM DTT, 2 ug poly(dI-dC) in 20 uL; 20 min at room temperature; 5% PAGE at 4 C; protein in a lysate after overexpression; label: 32P (T4 PNK)
T8 sequence (looked up, limits assumed): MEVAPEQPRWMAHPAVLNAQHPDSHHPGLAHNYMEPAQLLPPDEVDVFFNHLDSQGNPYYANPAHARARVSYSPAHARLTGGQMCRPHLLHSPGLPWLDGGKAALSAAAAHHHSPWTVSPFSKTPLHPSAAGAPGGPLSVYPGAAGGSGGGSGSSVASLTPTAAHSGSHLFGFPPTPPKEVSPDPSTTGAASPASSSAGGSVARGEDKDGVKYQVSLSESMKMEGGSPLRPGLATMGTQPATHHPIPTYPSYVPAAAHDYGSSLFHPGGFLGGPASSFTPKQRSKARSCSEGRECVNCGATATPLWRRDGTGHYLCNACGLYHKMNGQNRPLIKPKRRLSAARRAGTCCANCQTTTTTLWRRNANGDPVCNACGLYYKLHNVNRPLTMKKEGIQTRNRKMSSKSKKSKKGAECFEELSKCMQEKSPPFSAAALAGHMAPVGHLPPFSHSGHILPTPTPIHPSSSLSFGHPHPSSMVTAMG

POU1F1 E230K + GATA2 = test: EMSA; details: POU1F1-GATA2 complex; 20 mM HEPES-NaOH pH 7.9, 50 mM KCl, 0.1 mM EDTA, 10% glycerol, 0.5 mM DTT, 2 ug poly(dI-dC) in 20 uL; 20 min at room temperature; 5% PAGE at 4 C; protein in a lysate after overexpression; label: 32P (T4 PNK)
POU1F1 K216E + GATA2 = test: EMSA; details: POU1F1-GATA2 complex not observed; 20 mM HEPES-NaOH pH 7.9, 50 mM KCl, 0.1 mM EDTA, 10% glycerol, 0.5 mM DTT, 2 ug poly(dI-dC) in 20 uL; 20 min at room temperature; 5% PAGE at 4 C; protein in a lysate after overexpression; label: 32P (T4 PNK)
POU1F1 R172Q + GATA2 = test: EMSA; details: POU1F1-GATA2 complex, text: binding reduced; 20 mM HEPES-NaOH pH 7.9, 50 mM KCl, 0.1 mM EDTA, 10% glycerol, 0.5 mM DTT, 2 ug poly(dI-dC) in 20 uL; 20 min at room temperature; 5% PAGE at 4 C; protein in a lysate after overexpression; label: 32P (T4 PNK)
[8] = system: POU1F1 wild type (PIT1) + GATA2; test: EMSA with supershift; details: POU1F1-GATA2 complex, faint band; 20 mM HEPES-NaOH pH 7.9, 50 mM KCl, 0.1 mM EDTA, 10% glycerol, 0.5 mM DTT, 2 ug poly(dI-dC) in 20 uL; 20 min at room temperature; 5% PAGE at 4 C; protein in a lysate after overexpression; label: 32P (T4 PNK)
[9] = results: attenuated, discussion: fails to bind
[10] = table cell ambiguous (- or +/-)
[11] = results: reduced, discussion: fails to bind

| Sequence | binding result [1] | binding result [2] | binding result [3, 9] | binding result [4] | binding result [5, 10] | binding result [6, 11] | binding result ([7]; monomer) | binding result (GATA2 (Mus musculus)) | binding result (POU1F1 E230K + GATA2) | binding result (POU1F1 K216E + GATA2) | binding result (POU1F1 R172Q + GATA2) | binding result ([7]; monomer and dimer) | binding result [8] | binding result ([1]; monomer and dimer reduced) | binding result ([2]; monomer-dominant) | binding result ([3]; monomer and dimer not reduced) | binding result ([4]; monomer and dimer reduced) | binding result ([5]; table: -) | binding result ([6]; increased monomer, not dimer) |
| --- | --- | --- | --- | --- | --- | --- | --- | --- | --- | --- | --- | --- | --- | --- | --- | --- | --- | --- | --- |
| AGTATGAATTTTCAATAGATGCTTTTCAGATAAGAAA (double strand) [hTSHβ-PG] | binds more weakly | binds more weakly | no binding | binds more weakly | binds more weakly | no binding | binds |  |  |  |  |  |  |  |  |  |  |  |  |
| AGTATGAATTTTCAATAGATGCTTTTCAGATAAGAAAGCAGTGAATCAAATGCAATTGTATAAACAAGAAGATC (double strand) [hTSHβ-PGSR] |  |  |  |  |  |  |  | binds | no binding | no binding | no binding | binds | binds |  |  |  |  |  |  |
| AGTGAATCAAATGCAATTGTATAAACAAGAAGATC (double strand) [hTSHβ-SR] | binds more weakly | binds more weakly | no binding | binds more weakly | binds more weakly | no binding | binds |  |  |  |  |  |  |  |  |  |  |  |  |
| TGCCTGATTATATATATATTCATGAAGGTGTCG (double strand) [rPRL-1P] |  |  |  |  |  |  |  |  |  |  |  | binds |  | binds more weakly | binds more weakly | binds | binds more weakly | binds more weakly | binds |
